Measurements from patent US20050271651A1, “Inhibition of bright function as a treatment for excessive immunoglobulin production” (Oklahoma Medical Research Foundation, published 2005).
Results from cells or extracts need not show a direct contact. No signal at the amounts used counts as a negative. Where a protein sequence is shown, tags need not be part of it.

Biological target: T1, Bright (ARID3A), native nuclear extract 300212/CL01/K562 (Homo sapiens) (UniProt Q99856)
T1 sequence (limits assumed): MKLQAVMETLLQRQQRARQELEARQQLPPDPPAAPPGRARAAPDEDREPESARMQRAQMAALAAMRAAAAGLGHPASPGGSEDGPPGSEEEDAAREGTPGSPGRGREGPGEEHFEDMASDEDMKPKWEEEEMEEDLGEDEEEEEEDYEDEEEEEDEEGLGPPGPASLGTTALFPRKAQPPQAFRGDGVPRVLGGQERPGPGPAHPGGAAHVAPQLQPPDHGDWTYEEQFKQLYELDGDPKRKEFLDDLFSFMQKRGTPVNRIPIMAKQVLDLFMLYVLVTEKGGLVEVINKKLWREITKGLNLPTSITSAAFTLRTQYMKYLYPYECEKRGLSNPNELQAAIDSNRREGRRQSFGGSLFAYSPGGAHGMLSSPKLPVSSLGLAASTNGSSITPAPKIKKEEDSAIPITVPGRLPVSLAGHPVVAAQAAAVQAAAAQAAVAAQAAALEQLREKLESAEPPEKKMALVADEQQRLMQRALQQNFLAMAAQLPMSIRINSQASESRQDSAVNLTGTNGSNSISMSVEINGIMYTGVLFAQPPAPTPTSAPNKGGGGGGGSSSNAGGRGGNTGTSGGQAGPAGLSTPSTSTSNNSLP
Experiment: competition with a labelled probe
Conditions: 10-1000 molar excess does not compete, 300212 extract; protein in an extract

TAAGTATAAATATGTACATGAGTACACCCTCCACTTATTTATCTTA (double strand) [mutated Bright site competitor]
binding result: no binding
